Laboratory results: paper doi:10.1101/2021.01.07.425702
These are yes or no findings as the source states them, for the method shown. For some assays here: Binding seen in cells or lysates may run through a third protein. Some results given as binding are weak or reduced against the parent protein; the word gives no strength.

The chains behind the UniProt entries cited, without tags or fusion partners. Residues count along the entry.
UniProt O95166: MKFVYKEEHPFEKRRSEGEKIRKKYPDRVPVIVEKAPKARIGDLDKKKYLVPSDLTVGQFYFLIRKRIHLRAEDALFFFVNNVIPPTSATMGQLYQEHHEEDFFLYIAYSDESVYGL
UniProt Q9BXW4, residues 1-126: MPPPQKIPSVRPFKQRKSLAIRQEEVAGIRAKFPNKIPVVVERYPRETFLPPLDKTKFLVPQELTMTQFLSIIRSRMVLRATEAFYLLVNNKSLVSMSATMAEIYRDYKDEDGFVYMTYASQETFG
UniProt P60520: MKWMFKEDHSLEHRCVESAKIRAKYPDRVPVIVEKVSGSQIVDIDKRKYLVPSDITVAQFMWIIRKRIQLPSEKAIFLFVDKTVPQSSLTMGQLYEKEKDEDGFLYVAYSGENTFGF

T1: MAVS, endogenous in MEFs (mouse (endogenous in MEFs)), Q8VCF0
T1 chain: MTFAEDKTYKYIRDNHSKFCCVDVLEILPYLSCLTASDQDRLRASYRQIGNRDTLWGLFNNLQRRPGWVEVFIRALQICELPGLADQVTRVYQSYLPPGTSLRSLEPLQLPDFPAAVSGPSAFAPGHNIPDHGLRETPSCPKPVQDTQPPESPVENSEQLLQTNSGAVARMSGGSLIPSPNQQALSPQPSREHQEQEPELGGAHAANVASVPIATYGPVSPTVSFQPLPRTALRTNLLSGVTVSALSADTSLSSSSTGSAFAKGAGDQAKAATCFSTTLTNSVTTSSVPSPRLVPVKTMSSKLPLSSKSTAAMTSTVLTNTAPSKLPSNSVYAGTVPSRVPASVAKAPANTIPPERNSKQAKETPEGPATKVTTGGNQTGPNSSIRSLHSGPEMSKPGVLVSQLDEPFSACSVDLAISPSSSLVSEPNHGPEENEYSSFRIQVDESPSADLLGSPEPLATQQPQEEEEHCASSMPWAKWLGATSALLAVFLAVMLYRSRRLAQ


How the values were obtained:
[1] = biological target: Flag-TAX1BP1 wild type (UniProt Q86VP1); experiment: co-IP
[2] = biological target: T1, MAVS, endogenous in MEFs (mouse …); experiment: SDD-AGE; settings: remark: other sources report otherwise

| Molecule | binding [1] | binding [2] |
| --- | --- | --- |
| V5-tagged MAP1LC3A (from UniProt Q9H492 1-121) | binds | – |
| V5-tagged GABARAP (from UniProt O95166 1-117) | binds | – |
| V5-tagged MAP1LC3C (from UniProt Q9BXW4 1-126) | binds | – |
| V5-tagged GABARAPL2 (GATE16) (from UniProt P60520 1-117) | binds weakly | – |
| MAVS, endogenous in MEFs, Q8VCF0 1-503 (protein) MTFAEDKTYKYIRDNHSKFCCVDVLEILPYLSCLTASDQDRLRASYRQIGNRDTLWGLFNNLQRRPGWVEVFIRALQICELPGLADQVTRVYQSYLPPGTSLRSLEPLQLPDFPAAVSGPSAFAPGHNIPDHGLRETPSCPKPVQDTQPPESPVENSEQLLQTNSGAVARMSGGSLIPSPNQQALSPQPSREHQEQEPELGGAHAANVASVPIATYGPVSPTVSFQPLPRTALRTNLLSGVTVSALSADTSLSSSSTGSAFAKGAGDQAKAATCFSTTLTNSVTTSSVPSPRLVPVKTMSSKLPLSSKSTAAMTSTVLTNTAPSKLPSNSVYAGTVPSRVPASVAKAPANTIPPERNSKQAKETPEGPATKVTTGGNQTGPNSSIRSLHSGPEMSKPGVLVSQLDEPFSACSVDLAISPSSSLVSEPNHGPEENEYSSFRIQVDESPSADLLGSPEPLATQQPQEEEEHCASSMPWAKWLGATSALLAVFLAVMLYRSRRLAQ | – | binds |
